From paper PMC10409762
No constants are given. Whether binding was seen depends on the method and setting. In cells and extracts the contact can be indirect. Some binding calls cover weakened binding; strength is not graded here.

By UniProt entry, the sequences of proteins in these tests, tags left out.
UniProt P37238: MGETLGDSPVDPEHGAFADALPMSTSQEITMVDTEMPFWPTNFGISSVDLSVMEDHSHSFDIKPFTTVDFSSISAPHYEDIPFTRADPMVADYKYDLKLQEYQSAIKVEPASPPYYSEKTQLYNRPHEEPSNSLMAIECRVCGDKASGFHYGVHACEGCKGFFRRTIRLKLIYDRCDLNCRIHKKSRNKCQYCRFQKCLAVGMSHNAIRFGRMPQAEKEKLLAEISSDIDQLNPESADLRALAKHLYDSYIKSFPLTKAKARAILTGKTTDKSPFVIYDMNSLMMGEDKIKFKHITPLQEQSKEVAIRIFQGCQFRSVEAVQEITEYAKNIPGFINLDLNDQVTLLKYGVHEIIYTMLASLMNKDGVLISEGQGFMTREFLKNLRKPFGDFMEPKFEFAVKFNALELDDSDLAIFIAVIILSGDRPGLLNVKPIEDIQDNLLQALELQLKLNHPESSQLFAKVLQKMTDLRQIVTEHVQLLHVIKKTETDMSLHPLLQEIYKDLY
UniProt Q04207: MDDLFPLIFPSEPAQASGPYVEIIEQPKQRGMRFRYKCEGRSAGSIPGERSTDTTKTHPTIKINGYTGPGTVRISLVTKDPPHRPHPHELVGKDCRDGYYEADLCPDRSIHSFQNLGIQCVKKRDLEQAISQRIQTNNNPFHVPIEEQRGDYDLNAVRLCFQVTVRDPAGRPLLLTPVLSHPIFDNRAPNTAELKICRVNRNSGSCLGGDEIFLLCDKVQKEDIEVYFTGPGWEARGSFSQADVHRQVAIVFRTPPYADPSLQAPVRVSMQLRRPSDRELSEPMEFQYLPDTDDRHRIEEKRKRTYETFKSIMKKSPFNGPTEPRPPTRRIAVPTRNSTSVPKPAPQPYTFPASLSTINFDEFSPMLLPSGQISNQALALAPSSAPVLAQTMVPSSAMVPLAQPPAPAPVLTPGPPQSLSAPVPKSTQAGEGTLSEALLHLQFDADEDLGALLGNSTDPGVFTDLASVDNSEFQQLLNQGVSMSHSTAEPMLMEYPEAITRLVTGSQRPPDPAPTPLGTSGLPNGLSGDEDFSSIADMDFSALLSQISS

Target: PPARγ (mouse) (UniProt P37238)
Assay: co-IP; cells co-transfected with PPARγ and p65, lysed in NP-40 buffer; supernatants incubated overnight with Protein A + G Agarose coupled to the indicated antibody, washed three times, immunoblot

binding: binds
Substance: NF-κB (p65) (from UniProt Q04207 1-549)
